Taken from: PubChem BioAssay AID504793 (Drosophila RNAi Screening Center, 2011)
The screen tested about 23,000 reagents; below is a random part of those that have a named target and a result. Over the whole deposit, 62 (0.27%) are marked active. 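Calls come from follow-up tests whose scores are not deposited, so confirmed genes may have low counts here; counts are not normalised per plate.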 Raw values are not corrected between plates. A plus sign joins genes that one reagent is predicted to hit.

Assay: 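Whole-genome screen for parts of the DNA damage checkpoint at G2/M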 (primary screen)
Cells: Drosophila S2R+ cells
Knock-down reagent: long dsRNA against Drosophila genes, about 0.25 µg dsRNA per well
Timing: 4 days of dsRNA, then 4 hours of drug before read-out
Challenge: doxorubicin 0.5 µM for 4 hours to cause double-strand breaks, in cells also given a low, harmless dose of dsRNA against nbs to sensitise the assay
Detection: 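Mitotic index as the number of phospho-histone H3-positive cells in each well following doxorubicin, given as raw counts without normalisation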
Direction: mitotic cells: higher = more cells in mitosis, weaker G2 arrest
Call rule: 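Genes are called active only when high mitotic counts were reproduced with independent dsRNAs and mitosis was checked for delay without damage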
Meaning of the calls: active = confirmed in follow-up tests; inactive = not confirmed

| gene | amplicon | mitotic cells, replicate 1 | mitotic cells, replicate 2 | Call |
| --- | --- | --- | --- | --- |
| ana2 | DRSC05952 | 8 | – | inactive |
| ana2 | DRSC26549 | 7 | – | inactive |
| alpha-Est1 | DRSC12612 | 4 | – | inactive |
| Ent2 | DRSC02124 | 9 | – | inactive |
| Ent2 | DRSC28879 | 6 | – | inactive |
| CG5892 | DRSC15910 | 8 | – | inactive |
| CG5892 | DRSC24710 | 3 | – | inactive |
| CG13796 | DRSC24686 | 5 | – | inactive |
| CkIalpha | DRSC20231 | 18 | – | inactive |
| CkIalpha | DRSC22609 | 11 | – | inactive |
| CkIalpha | DRSC23308 | 7 | – | inactive |
| CkIalpha | DRSC25564 | 8 | – | inactive |
| CG14380 | DRSC14840 | 9 | – | inactive |
| CG6833 | DRSC10721 | 6 | – | inactive |
| CG6833 | DRSC24711 | 6 | – | inactive |
| 5-HT2B | DRSC16360 | 5 | – | inactive |
| 5-HT2B | DRSC16362 | 7 | – | inactive |
| 5-HT2B | DRSC25577 | 7 | – | inactive |
| CG42676 | DRSC08392 | 1 | – | inactive |
| CG42676 | DRSC23487 | 6 | – | inactive |
| CG3649 | DRSC04400 | 7 | – | inactive |
| CG3649 | DRSC28728 | 8 | – | inactive |
| Ncoa6 | DRSC23060 | 5 | – | inactive |
| Ncoa6 | DRSC25819 | 10 | – | inactive |
| nullo | DRSC18807 | 10 | – | inactive |
| nullo | DRSC29660 | 8 | – | inactive |
| hmw | DRSC16277 | 4 | – | inactive |
| CG7460 | DRSC10850 | 2 | – | inactive |
| CG7460 | DRSC27927 | 6 | – | inactive |
| CG31287 | DRSC13138 | 8 | – | inactive |
| Orco | DRSC12358 | 6 | – | inactive |
| Orco | DRSC27061 | 7 | – | inactive |
| CG10725 | DRSC09788 | 3 | – | inactive |
| CG5402 | DRSC15792 | 13 | – | inactive |
| CG5402 | DRSC26273 | 5 | – | inactive |
| CG14478 | DRSC06450 | 3 | – | inactive |
| CG7856 | DRSC04896 | 9 | – | inactive |
| TM9SF2 | DRSC03197 | 7 | – | inactive |
| CG5107 | DRSC15716 | 5 | – | inactive |
| swi2 | DRSC06457 | 7 | – | inactive |
| Samuel | DRSC21731 | 10 | – | inactive |
| Samuel | DRSC23114 | 7 | – | inactive |
| TwdlL | DRSC16042 | 4 | – | inactive |
| mRpS9 | DRSC12645 | 6 | – | inactive |
| mRpS9 | DRSC15456 | 3 | 14 | inactive |
| CG9426 | DRSC03219 | 9 | – | inactive |
| Prosalpha2 | DRSC16798 | 133 | – | inactive |
| Prosalpha2 | DRSC28078 | 50 | – | inactive |
| CG42662 + CG30080 | DRSC05571 | 7 | – | inactive |
| RpL12 | DRSC04344 | 10 | – | inactive |
| Jheh1 | DRSC06529 | 7 | – | inactive |
| Jheh1 | DRSC25526 | 9 | – | inactive |
| ste24b | DRSC07315 | 4 | – | inactive |
| ste24b | DRSC24340 | 3 | – | inactive |
| dUTPase | DRSC01998 | – | – | inactive |
| dUTPase | DRSC29469 | 2 | – | inactive |
| CG32061 | DRSC22605 | 7 | – | inactive |

Continued (15 carried over from the part before).
| gene | amplicon | mitotic cells, replicate 1 | mitotic cells, replicate 2 | Call |
| --- | --- | --- | --- | --- |
| TwdlL | DRSC16042 | 4 | – | inactive |
| mRpS9 | DRSC12645 | 6 | – | inactive |
| mRpS9 | DRSC15456 | 3 | 14 | inactive |
| CG9426 | DRSC03219 | 9 | – | inactive |
| Prosalpha2 | DRSC16798 | 133 | – | inactive |
| Prosalpha2 | DRSC28078 | 50 | – | inactive |
| CG42662 + CG30080 | DRSC05571 | 7 | – | inactive |
| RpL12 | DRSC04344 | 10 | – | inactive |
| Jheh1 | DRSC06529 | 7 | – | inactive |
| Jheh1 | DRSC25526 | 9 | – | inactive |
| ste24b | DRSC07315 | 4 | – | inactive |
| ste24b | DRSC24340 | 3 | – | inactive |
| dUTPase | DRSC01998 | – | – | inactive |
| dUTPase | DRSC29469 | 2 | – | inactive |
| CG32061 | DRSC22605 | 7 | – | inactive |
| CIAPIN1 | DRSC03559 | 3 | – | inactive |
| CIAPIN1 | DRSC24039 | 4 | – | inactive |
| GlnRS | DRSC14140 | 5 | – | inactive |
| CG3548 | DRSC04387 | 7 | – | inactive |
| CG3548 | DRSC29938 | 5 | – | inactive |
| DCP1 | DRSC04091 | 4 | – | inactive |
| DCP1 | DRSC29844 | 1 | – | inactive |
| mthl11 | DRSC12779 | 3 | – | inactive |
| mthl11 | DRSC28437 | 7 | – | inactive |
| ND-ACP | DRSC08724 | 8 | – | inactive |
| blp | DRSC15757 | 5 | – | inactive |
| blp | DRSC28887 | 5 | – | inactive |
| CG13216 | DRSC06338 | 2 | – | inactive |
| CG15753 (retired record) | DRSC22985 | 9 | – | inactive |
| CG32971 | DRSC01372 | 6 | – | inactive |
| Setd3 | DRSC17840 | 10 | – | inactive |
| Setd3 | DRSC18269 | 10 | – | inactive |
| speck | DRSC04608 | 3 | – | inactive |
| speck | DRSC27654 | 7 | – | inactive |
| CG3376 | DRSC04362 | 4 | – | inactive |
| CG3376 | DRSC26489 | 4 | – | inactive |
| CG44422 | DRSC18885 | 5 | – | inactive |
| CG44422 | DRSC19380 | 3 | – | inactive |
| CG44422 | DRSC23284 | 15 | – | inactive |
| CG14244 | DRSC14739 | 8 | – | inactive |
| Slmap | DRSC03799 | 3 | – | inactive |
| m | DRSC20181 | 17 | – | inactive |
| m | DRSC29636 | – | – | inactive |
| CG16758 | DRSC07984 | 26 | – | inactive |
| CG16758 | DRSC08492 | 3 | – | inactive |
| CG16758 | DRSC28475 | 6 | – | inactive |
| CG30487 | DRSC05377 | 8 | – | inactive |
| Gpat4 | DRSC04345 | 3 | – | inactive |
| Hsp67Bc | DRSC11193 | 2 | – | inactive |
| Hsp67Bc | DRSC28175 | 3 | – | inactive |
| CG4313 | DRSC18514 | 2 | – | inactive |
| CG4313 | DRSC24627 | 3 | – | inactive |
| Ubc2 | DRSC01137 | 6 | – | inactive |
| Ubc2 | DRSC03468 | 4 | – | inactive |
| Ubc2 | DRSC29062 | 3 | – | inactive |
| CG10651 | DRSC02086 | 10 | – | inactive |
| Lcch3 | DRSC20257 | 13 | – | inactive |
| Lcch3 | DRSC22175 | 14 | – | inactive |
| CG6195 | DRSC15989 | 5 | – | inactive |
| CG6195 | DRSC25477 | 4 | – | inactive |
| Spn43Aa | DRSC06117 | 2 | – | inactive |
| Ac76E | DRSC09642 | 3 | – | inactive |
| Ac76E | DRSC09662 | 8 | – | inactive |
| DIP-delta | DRSC10214 | 12 | – | inactive |
| DIP-delta | DRSC10450 | 7 | – | inactive |
| Gr21a | DRSC00366 | 10 | – | inactive |
| Gr21a | DRSC28583 | 5 | – | inactive |
| CG12126 | DRSC06103 | 8 | – | inactive |
